According to patent publication US5783434A, “Cathepsin and methods and compositions for inhibition thereof” (priority 1995, dated 1998):
Some results were stated once for a whole list of compounds, not compound by compound. Where a SMILES comes first, the peptide text is derived from it. [ ]: non-standard residue; d: D form. The star is where a group is joined. Cbz = O=C(OCc1ccccc1)*; CHN2 = [N-]=[N+]=C*; CH2F = FC*

What follows are compounds tested on β-amyloid production in 293 751 SWE cells (assay: Cellular screen for inhibition of β-amyloid peptide production (ELISA, MTT-normalised)). Details: two hour pretreatment plus two hours.
Assay type: cell-based, human

Compound	reduction of β-amyloid peptide production as compared to control
CC(C)C(NC(=O)OCc1ccccc1)C(=O)NC(Cc1ccc(O)cc1)C(=O)CF (stereo not drawn) [Example 79] (Cbz-Val-Tyr-CH2F; configuration not given here)	able to reduce β-amyloid peptide production as compared to control
CC(C)[C@@H](NC(=O)OCc1ccccc1)C(=O)N[C@@H](C=O)Cc1ccccc1 [Example 30] (Cbz-[dV]-[dF]-aldehyde)	able to reduce β-amyloid peptide production as compared to control
CC(C)[C@@H](C=O)NC(=O)[C@H](Cc1ccccc1)NC(=O)OCc1ccccc1 [Example 25] (Cbz-Phe-Val-aldehyde)	able to reduce β-amyloid peptide production as compared to control
CON(C)C(=O)[C@H](Cc1c[nH]c2ccccc12)NC(=O)C(=Cc1ccccc1)c1ccccc1 [Example 38]	able to reduce β-amyloid peptide production as compared to control
CON(C)C(=O)[C@H](Cc1c[nH]c2ccccc12)NC(=O)c1ccccc1Oc1ccccc1 [Example 66]	able to reduce β-amyloid peptide production as compared to control
CC(C)[C@H](NC(=O)OCc1ccccc1)C(=O)N[C@H](C=O)Cc1ccccc1 [Example 13] (Cbz-Val-Phe-aldehyde)	able to reduce β-amyloid peptide production as compared to control
CON(C)C(=O)[C@H](Cc1ccccc1)NC(=O)[C@@H](NC(=O)OCc1ccccc1)C(C)C [Example 23]	able to reduce β-amyloid peptide production as compared to control
CON(C)C(=O)[C@H](Cc1ccccc1)NC(=O)C(c1ccccc1)(c1ccccc1)c1ccccc1 [Example 49]	able to reduce β-amyloid peptide production as compared to control
CON(C)C(=O)[C@H](CC(C)C)NC(=O)[C@@H](Cc1ccccc1)NC(=O)OCc1ccccc1 [Example 32]	able to reduce β-amyloid peptide production as compared to control
CC(C)[C@@H](NC(=O)[C@@H](Cc1ccccc1)NC(=O)OCc1ccccc1)C(=O)C=[N+]=[N-] [Example 34] (Cbz-[dF]-[dV]-CHN2)	able to reduce β-amyloid peptide production as compared to control
CC(C)CC(NC(=O)OCc1ccccc1)C(=O)NC(CC(C)C)C(=O)NC(Cc1ccc(O)cc1)C(=O)CF (stereo not drawn) [Example 76] (Cbz-Leu-Leu-Tyr-CH2F; configuration not given here)	able to reduce β-amyloid peptide production as compared to control
O=C[C@H](Cc1ccc2ccccc2c1)NC(=O)C(c1ccccc1)c1ccccc1 [Example 11]	able to reduce β-amyloid peptide production as compared to control
O=C[C@H](Cc1c[nH]c2ccccc12)NC(=O)C(c1ccccc1)c1ccccc1 [Example 8]	able to reduce β-amyloid peptide production as compared to control
O=C[C@H](CCc1ccccc1)NC(=O)CCCCc1ccccc1 [Example 52]	able to reduce β-amyloid peptide production as compared to control
CON(C)C(=O)[C@H](Cc1ccccc1)NC(=O)Cc1ccccc1 [Example 57]	able to reduce β-amyloid peptide production as compared to control
CC(C)C[C@H](NC(=O)OCc1ccccc1)C(=O)N[C@@H](C=O)Cc1ccccc1 [Example 14] (Cbz-Leu-[dF]-aldehyde)	able to reduce β-amyloid peptide production as compared to control
[N-]=[N+]=CC(=O)[C@H](Cc1ccccc1)NC(=O)[C@H](Cc1ccccc1)NC(=O)OCc1ccccc1 [Example 35] (Cbz-Phe-Phe-CHN2)	able to reduce β-amyloid peptide production as compared to control

Compound	reduction of β-amyloid peptide production as compared to control
CON(C)C(=O)[C@H](Cc1ccccc1)NC(=O)C1c2ccccc2Oc2ccccc21 [Example 62]	able to reduce β-amyloid peptide production as compared to control
O=C[C@H](Cc1ccc(OCc2ccccc2)cc1)NC(=O)C(c1ccccc1)c1ccccc1 [Example 45]	able to reduce β-amyloid peptide production as compared to control
CON(C)C(=O)[C@H](Cc1ccccc1)NC(=O)CCCCc1ccccc1 [Example 41]	able to reduce β-amyloid peptide production as compared to control
CC(C)[C@H](NC(=O)OCc1ccccc1)C(=O)N[C@H](C=O)C(C)C [Example 22] (Cbz-Val-Val-aldehyde)	able to reduce β-amyloid peptide production as compared to control
CON(C)C(=O)[C@@H](Cc1ccccc1)NC(=O)[C@H](NC(=O)OCc1ccccc1)C(C)C [Example 29]	able to reduce β-amyloid peptide production as compared to control
CON(C)C(=O)[C@@H](Cc1ccccc1)NC(=O)[C@@H](NC(=O)OCc1ccccc1)C(C)C [Example 28]	able to reduce β-amyloid peptide production as compared to control
CC(C)[C@H](NC(=O)OCc1ccccc1)C(=O)N[C@H](CO)Cc1ccccc1 [Example 26]	able to reduce β-amyloid peptide production as compared to control
O=C[C@H](Cc1ccccc1)NC(=O)N(c1ccccc1)c1ccccc1 [Example 75]	able to reduce β-amyloid peptide production as compared to control
O=C[C@H](Cc1ccccc1)NC(=O)CCc1ccccc1 [Example 54]	able to reduce β-amyloid peptide production as compared to control
O=C[C@H](CC1CCCCC1)NC(=O)C(c1ccccc1)c1ccccc1 [Example 2]	able to reduce β-amyloid peptide production as compared to control
O=C[C@H](Cc1ccccc1)NC(=O)C(Cc1ccccc1)c1ccccc1 (stereo partly shown) [Example 12]	able to reduce β-amyloid peptide production as compared to control
CON(C)C(=O)[C@H](Cc1ccccc1)NC(=O)CCc1ccccc1 [Example 48]	able to reduce β-amyloid peptide production as compared to control
CC(C)C[C@@H](C=O)NC(=O)[C@@H](Cc1ccccc1)NC(=O)OCc1ccccc1 [Example 9] (Cbz-[dF]-Leu-aldehyde)	able to reduce β-amyloid peptide production as compared to control
CON(C)C(=O)[C@@H]1Cc2ccccc2CN1C(=O)[C@@H](NC(=O)OCc1ccccc1)C(C)C [Example 74]	able to reduce β-amyloid peptide production as compared to control
CON(C)C(=O)[C@H](Cc1ccccc1)NC(=O)C(Cc1ccccc1)c1ccccc1 (stereo partly shown) [Example 60]	able to reduce β-amyloid peptide production as compared to control
CON(C)C(=O)[C@H](Cc1ccccc1)NC(=O)[C@@H](NC(=O)c1ccc2ccccc2c1)C(C)C [Example 17]	able to reduce β-amyloid peptide production as compared to control
CON(C)C(=O)[C@@H]1Cc2ccccc2CN1C(=O)C(c1ccccc1)c1ccccc1 [Example 73]	able to reduce β-amyloid peptide production as compared to control
